# Experimental data published in the supplement of paper PMC8728848.
# This is one part of the list.
# B1: PX9916F-bfa-443-24-443 (Bacteroides fragilis) (protein)
# chain: DIRPVGSVIPQTAEEYRALLARAYLNVPNDRGLACLRSDEMLVNDNEYDRNSYGDIERWNDVSPFPGTSQFTWSNFYNVLFIANQVIESQKEITEGTPEVVNQLVGEAHLLRAYLHFVLVNLHGQPYTKSGALNSKSIPLKLDTDLEKTLGRNTVEEVYTSILSDIEHARELINKEKWETVFSYRFNVLSVDALQSRVSLYMGAWPKCLESAEAVLAKKSVLVDMNETPLALPNHFESVESITALEQVMGSSVNNAVWVPATFLALYQEGDKRLAAYFAAPDENGNRKSSKGGKREFSCTFRVGELYLNAAEAAANMDKLPHARMRLLELMRKRYTPEAYDKKENAVNVMDKNALISEILNERARELAFEGHRWFDLRRTTRPRMVKVLQGKTYILEQDDPRYTIPIPRDAIAANPGLAN
# Columns and labels:
# Assay in all cases: glycan array binding signal (z-score within array); higher = stronger binding
# Conditions in all cases: glycan notation: IUPAC condensed, linker removed
# [1] = target: Fuc(a1-2)Gal6S(b1-3)GlcNAc6S
# Procedure, shortened: (§1)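 Glycan array data came from 3228 arrays in the Consortium for Functional Glycomics database, and only arrays with an available protein sequence were kept. Glycan names were put into IUPAC-condensed notation, and columns mapping to the same glycan were averaged. The binding signal is a within-array Z-score, averaged across arrays of one protein sequence run at different concentrations or buffers and across linkers. A negative Z-score can be read as non-binding.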
# Fuc(a1-2)Gal6S(b1-4)Glc = target: Fuc(a1-2)Gal6S(b1-4)Glc
# Procedure, shortened: as §1
# [2] = target: Fuc(a1-2)Gal6S(b1-4)Glc6S
# Procedure, shortened: as §1
# Fuc(a1-2)[Gal(a1-3)]Gal = target: Fuc(a1-2)[Gal(a1-3)]Gal
# Procedure, shortened: as §1
# [3] = target: Fuc(a1-2)[Gal(a1-3)]Gal(b1-3)GalNAc
# Procedure, shortened: as §1
# [4] = target: Fuc(a1-2)[Gal(a1-3)]Gal(b1-3)GalNAc(b1-3)Gal(a1-4)Gal(b1-4)Glc
# Procedure, shortened: as §1
# [5] = target: Fuc(a1-2)[Gal(a1-3)]Gal(b1-3)GlcNAc
# Procedure, shortened: as §1
# [6] = target: Fuc(a1-2)[Gal(a1-3)]Gal(b1-3)GlcNAc(b1-2)Man(a1-3)[Fuc(a1-2)[Gal(a1-3)]Gal(b1-3)GlcNAc(b1-2)Man(a1-6)]Man(b1-4)GlcNAc(b1-4)GlcNAc
# Procedure, shortened: as §1
# [7] = target: Fuc(a1-2)[Gal(a1-3)]Gal(b1-3)GlcNAc(b1-2)Man(a1-3)[Fuc(a1-2)[Gal(a1-3)]Gal(b1-3)GlcNAc(b1-2)Man(a1-6)]Man(b1-4)GlcNAc(b1-4)[Fuc(a1-6)]GlcNAc
# Procedure, shortened: as §1
# [8] = target: Fuc(a1-2)[Gal(a1-3)]Gal(b1-3)GlcNAc(b1-3)GalNAc
# Procedure, shortened: as §1
# [9] = target: Fuc(a1-2)[Gal(a1-3)]Gal(b1-3)GlcNAc(b1-6)GalNAc
# Procedure, shortened: as §1
# [10] = target: Fuc(a1-2)[Gal(a1-3)]Gal(b1-4)Glc
# Procedure, shortened: as §1
# [11] = target: Fuc(a1-2)[Gal(a1-3)]Gal(b1-4)GlcNAc
# Procedure, shortened: as §1
# [12] = target: Fuc(a1-2)[Gal(a1-3)]Gal(b1-4)GlcNAc(b1-2)Man
# Procedure, shortened: as §1
# [13] = target: Fuc(a1-2)[Gal(a1-3)]Gal(b1-4)GlcNAc(b1-2)Man(a1-3)[Fuc(a1-2)[Gal(a1-3)]Gal(b1-4)GlcNAc(b1-2)Man(a1-6)]Man(b1-4)GlcNAc(b1-4)GlcNAc
# Procedure, shortened: as §1
# [14] = target: Fuc(a1-2)[Gal(a1-3)]Gal(b1-4)GlcNAc(b1-2)Man(a1-3)[Fuc(a1-2)[Gal(a1-3)]Gal(b1-4)GlcNAc(b1-2)Man(a1-6)]Man(b1-4)GlcNAc(b1-4)[Fuc(a1-6)]GlcNAc
# Procedure, shortened: as §1
# [15] = target: Fuc(a1-2)[Gal(a1-3)]Gal(b1-4)GlcNAc(b1-3)GalNAc
# Procedure, shortened: as §1
# [16] = target: Fuc(a1-2)[Gal(a1-3)]Gal(b1-4)GlcNAc(b1-3)[Fuc(a1-2)[Gal(a1-3)]Gal(b1-4)GlcNAc(b1-6)]GalNAc
# Procedure, shortened: as §1
# [17] = target: Fuc(a1-2)[Gal(a1-3)]Gal(b1-4)GlcNAc(b1-6)GalNAc
# Procedure, shortened: as §1
# [18] = target: Fuc(a1-2)[Gal(a1-3)]Gal(b1-4)[Fuc(a1-3)]Glc
# Procedure, shortened: as §1
# [19] = target: Fuc(a1-2)[Gal(a1-3)]Gal(b1-4)[Fuc(a1-3)]GlcNAc
# Procedure, shortened: as §1
# [20] = target: Fuc(a1-2)[Gal(a1-3)]Gal(b1-4)[Fuc(a1-3)]GlcNAc(b1-3)GalNAc
# Procedure, shortened: as §1
# [21] = target: Fuc(a1-2)[Gal(a1-4)]Gal(b1-4)GlcNAc
# Procedure, shortened: as §1
# [22] = target: Fuc(a1-2)[GalNAc(a1-3)]Gal
# Procedure, shortened: as §1
# [23] = target: Fuc(a1-2)[GalNAc(a1-3)]Gal(b1-3)GalNAc(a1-3)[Fuc(a1-2)]Gal(b1-4)GlcNAc
# Procedure, shortened: as §1
# [24] = target: Fuc(a1-2)[GalNAc(a1-3)]Gal(b1-3)GalNAc(b1-3)Gal(a1-4)Gal(b1-4)Glc
# Procedure, shortened: as §1
# [25] = target: Fuc(a1-2)[GalNAc(a1-3)]Gal(b1-3)GlcNAc
# Procedure, shortened: as §1
# [26] = target: Fuc(a1-2)[GalNAc(a1-3)]Gal(b1-3)GlcNAc(b1-2)Man(a1-3)[Fuc(a1-2)[GalNAc(a1-3)]Gal(b1-3)GlcNAc(b1-2)Man(a1-6)]Man(b1-4)GlcNAc(b1-4)GlcNAc
# Procedure, shortened: as §1
# [27] = target: Fuc(a1-2)[GalNAc(a1-3)]Gal(b1-3)GlcNAc(b1-2)Man(a1-3)[Fuc(a1-2)[GalNAc(a1-3)]Gal(b1-3)GlcNAc(b1-2)Man(a1-6)]Man(b1-4)GlcNAc(b1-4)[Fuc(a1-6)]GlcNAc
# Procedure, shortened: as §1
# [28] = target: Fuc(a1-2)[GalNAc(a1-3)]Gal(b1-3)GlcNAc(b1-3)GalNAc
# Procedure, shortened: as §1
# [29] = target: Fuc(a1-2)[GalNAc(a1-3)]Gal(b1-3)GlcNAc(b1-6)GalNAc
# Procedure, shortened: as §1
# [30] = target: Fuc(a1-2)[GalNAc(a1-3)]Gal(b1-4)Glc
# Procedure, shortened: as §1
# [31] = target: Fuc(a1-2)[GalNAc(a1-3)]Gal(b1-4)GlcNAc
# Procedure, shortened: as §1
# [32] = target: Fuc(a1-2)[GalNAc(a1-3)]Gal(b1-4)GlcNAc(b1-2)Man
# Procedure, shortened: as §1
# [33] = target: Fuc(a1-2)[GalNAc(a1-3)]Gal(b1-4)GlcNAc(b1-2)Man(a1-3)[Fuc(a1-2)[GalNAc(a1-3)]Gal(b1-4)GlcNAc(b1-2)Man(a1-6)]Man(b1-4)GlcNAc(b1-4)GlcNAc
# Procedure, shortened: as §1
# [34] = target: Fuc(a1-2)[GalNAc(a1-3)]Gal(b1-4)GlcNAc(b1-2)Man(a1-3)[Fuc(a1-2)[GalNAc(a1-3)]Gal(b1-4)GlcNAc(b1-2)Man(a1-6)]Man(b1-4)GlcNAc(b1-4)[Fuc(a1-6)]GlcNAc
# Procedure, shortened: as §1
# [35] = target: Fuc(a1-2)[GalNAc(a1-3)]Gal(b1-4)GlcNAc(b1-3)Gal(b1-4)GlcNAc
# Procedure, shortened: as §1
# [36] = target: Fuc(a1-2)[GalNAc(a1-3)]Gal(b1-4)GlcNAc(b1-3)Gal(b1-4)GlcNAc(b1-3)Gal(b1-4)GlcNAc
# Procedure, shortened: as §1
# [37] = target: Fuc(a1-2)[GalNAc(a1-3)]Gal(b1-4)GlcNAc(b1-3)GalNAc
# Procedure, shortened: as §1
# [38] = target: Fuc(a1-2)[GalNAc(a1-3)]Gal(b1-4)GlcNAc(b1-3)[Fuc(a1-2)[GalNAc(a1-3)]Gal(b1-4)GlcNAc(b1-6)]GalNAc
# Procedure, shortened: as §1
# [39] = target: Fuc(a1-2)[GalNAc(a1-3)]Gal(b1-4)GlcNAc(b1-6)GalNAc
# Procedure, shortened: as §1
# [40] = target: Fuc(a1-2)[GalNAc(a1-3)]Gal(b1-4)[Fuc(a1-3)]GlcNAc
# Procedure, shortened: as §1
# [41] = target: Fuc(a1-2)[GalNAc(a1-3)]Gal(b1-4)[Fuc(a1-3)]GlcNAc(b1-3)GalNAc
# Procedure, shortened: as §1
# [42] = target: Fuc(a1-2)[GalNAc(a1-4)]Gal(b1-4)GlcNAc
# Procedure, shortened: as §1
# [43] = target: Fuc(a1-2)[GalNAc(b1-3)]Gal
# Procedure, shortened: as §1
binder,measurement,setting,value
B1,glycan array binding signal (z-score),[1],-0.692
same,glycan array binding signal (z-score),Fuc(a1-2)Gal6S(b1-4)Glc,0.194
same,glycan array binding signal (z-score),[2],-0.448
same,glycan array binding signal (z-score),Fuc(a1-2)[Gal(a1-3)]Gal,0.165
same,glycan array binding signal (z-score),[3],0.286
same,glycan array binding signal (z-score),[4],-0.206
same,glycan array binding signal (z-score),[5],0.481
same,glycan array binding signal (z-score),[6],0.448
same,glycan array binding signal (z-score),[7],8.18
same,glycan array binding signal (z-score),[8],-0.857
same,glycan array binding signal (z-score),[9],0.234
same,glycan array binding signal (z-score),[10],-0.669
same,glycan array binding signal (z-score),[11],0.842
same,glycan array binding signal (z-score),[12],-0.317
same,glycan array binding signal (z-score),[13],8.54
same,glycan array binding signal (z-score),[14],2.44
same,glycan array binding signal (z-score),[15],-0.737
same,glycan array binding signal (z-score),[16],-0.835
same,glycan array binding signal (z-score),[17],0.541
same,glycan array binding signal (z-score),[18],-1.14
same,glycan array binding signal (z-score),[19],-0.897
same,glycan array binding signal (z-score),[20],-0.036
same,glycan array binding signal (z-score),[21],0.788
same,glycan array binding signal (z-score),[22],0.291
same,glycan array binding signal (z-score),[23],-0.268
same,glycan array binding signal (z-score),[24],0.877
same,glycan array binding signal (z-score),[25],0.646
same,glycan array binding signal (z-score),[26],1.39
same,glycan array binding signal (z-score),[27],-1.27
same,glycan array binding signal (z-score),[28],-0.388
same,glycan array binding signal (z-score),[29],0.212
same,glycan array binding signal (z-score),[30],-0.636
same,glycan array binding signal (z-score),[31],-0.867
same,glycan array binding signal (z-score),[32],-0.014
same,glycan array binding signal (z-score),[33],-0.221
same,glycan array binding signal (z-score),[34],-0.302
same,glycan array binding signal (z-score),[35],-0.616
same,glycan array binding signal (z-score),[36],0.839
same,glycan array binding signal (z-score),[37],-0.576
same,glycan array binding signal (z-score),[38],-0.542
same,glycan array binding signal (z-score),[39],1.03
same,glycan array binding signal (z-score),[40],1.85
same,glycan array binding signal (z-score),[41],2.91
same,glycan array binding signal (z-score),[42],-1.03
same,glycan array binding signal (z-score),[43],-0.431

# Retrieved one by one from the list above:
binder,measurement,setting,value
B1,glycan array binding signal (z-score),[8],-0.857
same,glycan array binding signal (z-score),[12],-0.317
same,glycan array binding signal (z-score),[35],-0.616
same,glycan array binding signal (z-score),[18],-1.14
